Measured values reported in patent US5270302A, “Derivatives of tetrapeptides as CCK agonists” (priority 1991, dated 1993).
Part of at least one peptide drawing is inferred or uncertain, most often the ends. Where a SMILES comes first, the peptide text is derived from it. [ ]: non-standard residue; d: D form. The star is where a group is joined. Acryloyl(3-(pyridin-3-yl)) = O=C(C=Cc1cccnc1)*; NMeD = CN[C@@H](CC(=O)O)C(=O)O; Boc = CC(C)(C)OC(=O)*; X3 = O=C(C=Cc1cccs1)*

Tested on: rats
Assay: Feeding effects of acute administration of CCK agonists in rats (liquid diet)
Type: in vivo
Conditions: i.p., acute (1 day)
Description: Feeding Effects of Acute Administration of CCK Agonists in Rats
The experimental paradigm used in the above-mentioned chronic feeding studies was employed to establish dose reponses for CCK agonists of this invention on an acute (1 day) basis. Following an 8-day diet acclimation period, the rats were weighed and injected with vehicle. CCK-8 or test compound (see Table 7) at doses ranging from 1-1000 nmol/kg (i.p.). Six to ten minutes later, the rats were presented with the diet and intakes were recorded. No injections were administered prior to the P.M. feeding. Mean A.M. intakes as a percent of control were plotted versus log dose (nm/kg) to establish the dose response curve.

## CN(C(=O)[C@H](CCCCNC(=O)C=Cc1cccs1)NC(=O)[C@H](Cc1c[nH]c2ccccc12)NC(=O)OC(C)(C)C)[C@@H](CC(=O)O)C(=O)N[C@@H](Cc1ccccc1)C(N)=O [Example 66, t-BOC-Trp-Lys-(ε-N-3-(2-thienyl)acrylyl)-(NMe)Asp-PheNH2] (Boc-WK(X3)[NMeD]F-NH2)
  ED25, suppression of feeding (liquid diet): 1.9 nmol/kg
  ED50, dose required to decrease mean A.M. food intake by 50%: 12.3 nmol/kg

## CN(C(=O)[C@H](CCCCNC(=O)C=Cc1cccnc1)NC(=O)[C@H](Cc1c[nH]c2ccccc12)NC(=O)OC(C)(C)C)[C@@H](CC(=O)O)C(=O)N[C@@H](Cc1ccccc1)C(N)=O [Example 67, t-BOC-Trp-Lys-(ε-N-3-(3-pyridyl)acrylyl)-(NMe)Asp-PheNH2] (Boc-WK(Acryloyl(3-(pyridin-3-yl)))[NMeD]F-NH2)
  ED25, suppression of feeding (liquid diet): 7.7 nmol/kg
  ED50, dose required to decrease mean A.M. food intake by 50%: 38 nmol/kg
